Some of the results follow.
Columns and labels:
Experiment in all cases: log2 fold change, soluble protein after heating vs DMSO (PISA); higher = thermal stabilisation; K562 cells, 10 uM, 30 min; active = over 0.2 and 3.5 SD of the protein, either way, in both replicates (recomputed)
[1] = compound: C1=CC=C(C=C1)[C@H](COC2=CC3=C(C=C2)NC(=O)N3)NC(=O)C4=CC=CN(C4=O)CC5=CC(=C(C=C5)F)F
Method in brief: (§1)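 K562 cells at 2×10^6 cells/mL were given 10 μM compound for 30 min. Aliquots then went through 3 min of heating across 48°C-58°C, were pooled, and were extracted in PBS with 0.5% NP-40 at 4°C, and the supernatant after 21,000xg for 90 min was quantified by TMTpro 16plex LC-MS/MS with channel sums equalised. Thermal stability relative to control samples, from duplicates, is given as log2 fold change.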

Amino acid sequences for entries named in this document (tags omitted). A change or cut given only in a name is not applied to a line headed by its entry.
UniProt Q8TF68: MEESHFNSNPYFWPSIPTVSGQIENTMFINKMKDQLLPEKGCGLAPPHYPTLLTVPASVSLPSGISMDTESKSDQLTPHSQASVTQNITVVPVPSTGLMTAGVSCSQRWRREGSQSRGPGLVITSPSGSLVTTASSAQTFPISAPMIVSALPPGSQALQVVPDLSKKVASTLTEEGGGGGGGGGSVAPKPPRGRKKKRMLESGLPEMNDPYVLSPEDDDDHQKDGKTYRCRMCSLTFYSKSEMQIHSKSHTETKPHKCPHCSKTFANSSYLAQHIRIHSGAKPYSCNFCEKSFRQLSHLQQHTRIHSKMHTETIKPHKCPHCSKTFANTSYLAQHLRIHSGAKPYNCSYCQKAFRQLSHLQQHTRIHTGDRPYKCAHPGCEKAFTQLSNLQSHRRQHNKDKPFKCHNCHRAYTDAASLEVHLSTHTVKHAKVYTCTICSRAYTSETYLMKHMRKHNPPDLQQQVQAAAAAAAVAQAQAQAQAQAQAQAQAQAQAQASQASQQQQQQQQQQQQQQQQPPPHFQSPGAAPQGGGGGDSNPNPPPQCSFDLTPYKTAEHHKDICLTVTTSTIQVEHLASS
UniProt O00488: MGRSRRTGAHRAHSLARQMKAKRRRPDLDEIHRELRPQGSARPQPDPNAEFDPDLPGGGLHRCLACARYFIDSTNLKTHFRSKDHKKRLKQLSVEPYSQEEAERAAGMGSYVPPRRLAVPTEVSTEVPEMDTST
UniProt Q9H5H4: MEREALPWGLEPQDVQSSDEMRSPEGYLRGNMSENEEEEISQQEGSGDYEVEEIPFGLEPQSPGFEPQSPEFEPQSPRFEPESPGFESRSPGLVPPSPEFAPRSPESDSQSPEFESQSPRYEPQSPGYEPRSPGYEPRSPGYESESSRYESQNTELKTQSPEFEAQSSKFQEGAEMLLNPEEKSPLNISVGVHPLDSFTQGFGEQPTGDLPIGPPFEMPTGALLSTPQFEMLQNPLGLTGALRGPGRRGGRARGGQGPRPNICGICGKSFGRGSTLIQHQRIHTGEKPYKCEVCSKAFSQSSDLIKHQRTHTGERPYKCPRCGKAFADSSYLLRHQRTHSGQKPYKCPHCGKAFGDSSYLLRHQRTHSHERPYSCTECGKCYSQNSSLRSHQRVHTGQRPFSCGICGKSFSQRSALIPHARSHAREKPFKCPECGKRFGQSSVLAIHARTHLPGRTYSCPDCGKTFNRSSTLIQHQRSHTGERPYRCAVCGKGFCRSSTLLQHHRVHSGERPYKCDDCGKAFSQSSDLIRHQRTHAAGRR
UniProt Q9NWK9: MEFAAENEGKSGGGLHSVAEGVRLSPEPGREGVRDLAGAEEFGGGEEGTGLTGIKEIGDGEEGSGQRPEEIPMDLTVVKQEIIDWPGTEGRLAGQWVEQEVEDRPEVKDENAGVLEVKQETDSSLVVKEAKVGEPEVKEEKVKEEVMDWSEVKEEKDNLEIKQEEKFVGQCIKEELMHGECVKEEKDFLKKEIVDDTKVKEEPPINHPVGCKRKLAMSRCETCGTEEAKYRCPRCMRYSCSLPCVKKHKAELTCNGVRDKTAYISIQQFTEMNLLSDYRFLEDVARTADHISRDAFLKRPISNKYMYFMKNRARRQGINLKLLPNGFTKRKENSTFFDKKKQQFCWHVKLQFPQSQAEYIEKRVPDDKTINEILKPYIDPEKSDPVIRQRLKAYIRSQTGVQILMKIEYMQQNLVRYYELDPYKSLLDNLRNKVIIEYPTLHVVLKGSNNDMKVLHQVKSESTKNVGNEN
UniProt Q14966: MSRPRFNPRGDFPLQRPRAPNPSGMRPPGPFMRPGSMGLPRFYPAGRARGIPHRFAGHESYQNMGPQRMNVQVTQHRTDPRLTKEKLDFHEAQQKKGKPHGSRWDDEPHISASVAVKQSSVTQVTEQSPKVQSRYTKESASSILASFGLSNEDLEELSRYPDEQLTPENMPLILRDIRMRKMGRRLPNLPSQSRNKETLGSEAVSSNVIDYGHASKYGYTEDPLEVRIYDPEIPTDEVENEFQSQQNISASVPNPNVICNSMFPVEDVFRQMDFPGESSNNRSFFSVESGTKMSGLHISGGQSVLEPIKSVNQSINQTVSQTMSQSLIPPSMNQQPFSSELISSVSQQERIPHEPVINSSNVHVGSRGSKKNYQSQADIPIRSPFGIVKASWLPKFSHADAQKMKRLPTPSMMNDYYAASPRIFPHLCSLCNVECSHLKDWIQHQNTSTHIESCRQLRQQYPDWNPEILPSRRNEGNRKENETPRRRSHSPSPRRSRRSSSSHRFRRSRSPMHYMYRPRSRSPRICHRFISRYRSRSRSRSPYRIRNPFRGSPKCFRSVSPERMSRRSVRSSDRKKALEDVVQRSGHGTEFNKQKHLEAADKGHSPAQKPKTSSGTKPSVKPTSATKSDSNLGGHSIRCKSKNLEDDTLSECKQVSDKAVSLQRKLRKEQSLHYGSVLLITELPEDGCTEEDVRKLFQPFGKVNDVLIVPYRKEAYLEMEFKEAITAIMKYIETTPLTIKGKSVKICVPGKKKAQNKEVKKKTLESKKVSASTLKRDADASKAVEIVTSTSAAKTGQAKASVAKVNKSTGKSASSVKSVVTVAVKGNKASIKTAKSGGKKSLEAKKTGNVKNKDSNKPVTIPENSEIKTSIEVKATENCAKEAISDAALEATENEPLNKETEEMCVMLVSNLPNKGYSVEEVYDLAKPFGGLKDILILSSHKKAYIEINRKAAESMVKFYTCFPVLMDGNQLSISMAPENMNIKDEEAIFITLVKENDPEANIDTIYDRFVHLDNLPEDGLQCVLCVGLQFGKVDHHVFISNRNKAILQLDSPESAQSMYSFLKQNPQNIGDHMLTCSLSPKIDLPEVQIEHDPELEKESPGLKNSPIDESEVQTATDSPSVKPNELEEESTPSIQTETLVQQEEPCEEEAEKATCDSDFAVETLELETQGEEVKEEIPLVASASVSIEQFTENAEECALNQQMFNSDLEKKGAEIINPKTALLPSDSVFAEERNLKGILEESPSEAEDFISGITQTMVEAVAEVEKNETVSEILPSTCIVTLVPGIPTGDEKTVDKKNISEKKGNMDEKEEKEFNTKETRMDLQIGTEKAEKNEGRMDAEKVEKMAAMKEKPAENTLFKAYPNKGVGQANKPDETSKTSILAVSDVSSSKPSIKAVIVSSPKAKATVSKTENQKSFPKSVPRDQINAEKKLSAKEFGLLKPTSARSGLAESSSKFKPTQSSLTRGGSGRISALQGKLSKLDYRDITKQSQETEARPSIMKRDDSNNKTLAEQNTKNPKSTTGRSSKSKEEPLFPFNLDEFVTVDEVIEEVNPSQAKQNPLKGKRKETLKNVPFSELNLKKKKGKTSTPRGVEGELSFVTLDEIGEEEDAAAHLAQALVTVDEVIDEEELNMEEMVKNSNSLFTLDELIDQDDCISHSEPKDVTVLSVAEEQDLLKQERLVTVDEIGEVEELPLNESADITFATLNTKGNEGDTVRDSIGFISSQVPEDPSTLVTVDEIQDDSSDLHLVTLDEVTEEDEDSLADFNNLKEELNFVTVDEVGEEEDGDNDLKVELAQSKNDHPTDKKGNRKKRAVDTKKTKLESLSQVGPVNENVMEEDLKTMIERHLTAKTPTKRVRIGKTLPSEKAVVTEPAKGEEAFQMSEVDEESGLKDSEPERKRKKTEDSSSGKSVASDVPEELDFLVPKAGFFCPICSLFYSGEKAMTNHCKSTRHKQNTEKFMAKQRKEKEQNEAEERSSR
UniProt Q499Z4: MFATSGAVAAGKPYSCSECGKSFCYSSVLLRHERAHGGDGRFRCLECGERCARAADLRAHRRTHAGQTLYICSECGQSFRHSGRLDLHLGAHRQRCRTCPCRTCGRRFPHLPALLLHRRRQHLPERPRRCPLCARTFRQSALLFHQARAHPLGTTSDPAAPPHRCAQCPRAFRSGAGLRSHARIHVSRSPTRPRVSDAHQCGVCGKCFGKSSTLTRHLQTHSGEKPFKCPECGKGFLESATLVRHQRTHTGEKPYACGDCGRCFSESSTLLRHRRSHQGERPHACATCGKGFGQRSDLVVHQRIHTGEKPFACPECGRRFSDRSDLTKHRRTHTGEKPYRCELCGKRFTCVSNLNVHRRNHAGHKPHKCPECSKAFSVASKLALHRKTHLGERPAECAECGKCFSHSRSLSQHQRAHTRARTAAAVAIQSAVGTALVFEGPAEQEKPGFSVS
UniProt Q9UEG4: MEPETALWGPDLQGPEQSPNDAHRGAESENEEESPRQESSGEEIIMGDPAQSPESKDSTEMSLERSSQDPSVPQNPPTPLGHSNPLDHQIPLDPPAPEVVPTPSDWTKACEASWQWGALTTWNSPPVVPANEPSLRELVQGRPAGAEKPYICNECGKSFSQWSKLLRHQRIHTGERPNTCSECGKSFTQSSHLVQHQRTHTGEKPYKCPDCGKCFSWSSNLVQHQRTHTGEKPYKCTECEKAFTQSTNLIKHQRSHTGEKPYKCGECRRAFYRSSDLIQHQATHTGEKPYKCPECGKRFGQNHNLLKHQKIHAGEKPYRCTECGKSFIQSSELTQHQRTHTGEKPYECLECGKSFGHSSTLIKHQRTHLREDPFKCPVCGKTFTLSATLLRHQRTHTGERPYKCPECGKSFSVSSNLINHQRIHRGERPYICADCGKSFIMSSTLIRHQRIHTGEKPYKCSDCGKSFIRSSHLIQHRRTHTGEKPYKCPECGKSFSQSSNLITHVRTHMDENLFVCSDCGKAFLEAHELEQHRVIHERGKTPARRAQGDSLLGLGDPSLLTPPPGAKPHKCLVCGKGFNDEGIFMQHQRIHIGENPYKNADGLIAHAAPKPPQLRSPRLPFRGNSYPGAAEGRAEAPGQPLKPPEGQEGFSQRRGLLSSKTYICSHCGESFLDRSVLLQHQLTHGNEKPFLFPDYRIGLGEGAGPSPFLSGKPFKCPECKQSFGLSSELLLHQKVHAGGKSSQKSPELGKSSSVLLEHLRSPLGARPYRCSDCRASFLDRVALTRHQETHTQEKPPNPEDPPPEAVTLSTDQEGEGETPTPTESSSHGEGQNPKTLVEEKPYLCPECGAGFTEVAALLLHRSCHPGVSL
UniProt P17028: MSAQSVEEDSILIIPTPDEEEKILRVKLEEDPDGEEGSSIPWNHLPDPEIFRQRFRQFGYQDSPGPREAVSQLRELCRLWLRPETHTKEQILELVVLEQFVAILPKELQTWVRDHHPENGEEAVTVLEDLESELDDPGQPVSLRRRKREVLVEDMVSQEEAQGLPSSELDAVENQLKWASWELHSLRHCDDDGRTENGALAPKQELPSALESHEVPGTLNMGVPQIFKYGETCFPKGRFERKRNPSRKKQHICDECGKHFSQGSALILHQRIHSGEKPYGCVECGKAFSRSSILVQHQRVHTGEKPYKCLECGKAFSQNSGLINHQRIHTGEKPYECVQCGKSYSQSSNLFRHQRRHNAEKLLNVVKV
UniProt Q96PM9: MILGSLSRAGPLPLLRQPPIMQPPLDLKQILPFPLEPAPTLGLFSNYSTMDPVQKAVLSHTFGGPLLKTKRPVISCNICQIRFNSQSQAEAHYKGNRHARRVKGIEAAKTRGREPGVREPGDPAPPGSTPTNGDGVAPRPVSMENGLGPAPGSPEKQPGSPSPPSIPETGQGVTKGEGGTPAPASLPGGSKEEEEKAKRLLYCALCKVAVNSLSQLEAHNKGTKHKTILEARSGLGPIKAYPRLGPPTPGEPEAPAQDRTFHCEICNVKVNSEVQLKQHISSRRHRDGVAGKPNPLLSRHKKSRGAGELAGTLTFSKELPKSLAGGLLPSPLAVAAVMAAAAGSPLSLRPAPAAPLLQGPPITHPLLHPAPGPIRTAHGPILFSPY
UniProt Q9H900: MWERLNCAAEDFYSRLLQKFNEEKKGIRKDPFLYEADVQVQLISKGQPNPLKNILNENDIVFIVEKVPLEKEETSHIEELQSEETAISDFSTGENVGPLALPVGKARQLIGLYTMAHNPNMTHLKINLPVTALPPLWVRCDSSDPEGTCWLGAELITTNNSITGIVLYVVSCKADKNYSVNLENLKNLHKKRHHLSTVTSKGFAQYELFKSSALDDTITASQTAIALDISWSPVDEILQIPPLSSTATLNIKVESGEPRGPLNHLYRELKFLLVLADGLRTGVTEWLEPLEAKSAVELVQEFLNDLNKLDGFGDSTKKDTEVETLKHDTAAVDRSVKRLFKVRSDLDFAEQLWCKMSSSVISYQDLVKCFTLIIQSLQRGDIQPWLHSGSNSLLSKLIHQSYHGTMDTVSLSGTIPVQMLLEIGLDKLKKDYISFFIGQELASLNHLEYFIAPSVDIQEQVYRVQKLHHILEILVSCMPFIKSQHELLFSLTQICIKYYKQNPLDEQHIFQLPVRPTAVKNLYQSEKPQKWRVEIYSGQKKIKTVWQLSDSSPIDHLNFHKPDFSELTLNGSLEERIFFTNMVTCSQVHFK
UniProt Q15649: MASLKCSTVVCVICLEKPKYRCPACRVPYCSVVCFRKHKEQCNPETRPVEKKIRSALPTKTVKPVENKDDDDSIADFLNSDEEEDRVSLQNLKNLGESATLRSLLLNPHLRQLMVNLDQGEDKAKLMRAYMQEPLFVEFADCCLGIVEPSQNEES

[2] = compound: CC1=C(SC2=C1C(=N[C@H](C3=NN=C(N32)C)CC(=O)N)C4=CC=C(C=C4)Cl)C
Method in brief: as §1

[3] = compound: CC1=C2C(=CC=C1)N=C(N(C2=O)C3=CC=CC=C3C)CN4C=NC5=C(N=CN=C54)N
Method in brief: as §1

[4] = compound: Cc1sc2c(c1C)C(c1ccc(Cl)cc1)=N[C@@H](CC(=O)OC(C)(C)C)c1nnc(C)n1-2
Method in brief: as §1

[5] = compound: c1ccc([C@@H]2C[C@H]2NC2CCNCC2)cc1
Method in brief: as §1

Measured: log2 fold change

ZNF622 (UniProt Q969S3)
inactive: [1] -0.028 | [2] 0.033 | [3] 0.073 | [4] -0.016 | [5] -0.049

ZNHIT1 (UniProt O43257)
inactive: [1] -0.066

ZNRD2 (UniProt O60232)
inactive: [1] -0.008 | [2] 0.07 | [3] 0.02 | [4] -0.112 | [5] -0.074

ZNF384 (UniProt Q8TF68)
inactive: [1] 0.117 | [2] -0.018 | [3] -0.087 | [4] 0.018 | [5] -0.061

ZPR1 (UniProt O75312)
inactive: [1] 0 | [2] 0.034 | [3] 0.027 | [4] -0.007 | [5] -0.006

ZNRF2 (UniProt Q8NHG8)
inactive: [1] -0.058 | [2] 0.095 | [3] -0.027 | [4] -0.024 | [5] 0.047

ZNF598 (UniProt Q86UK7)
inactive: [1] -0.067 | [2] 0.05 | [3] 0.054 | [4] 0.015 | [5] -0.08

ZNF593 (UniProt O00488)
inactive: [1] 0.001 | [2] -0.049 | [3] -0.206 | [4] 0.22 | [5] -0.028

ZNF511 isoform 1 (UniProt Q8NB15)
inactive: [1] -0.015 | [2] -0.128 | [3] 0.064 | [4] -0.123 | [5] 0.102

ZNF277 (UniProt Q9NRM2)
inactive: [1] -0.134 | [2] 0.028 | [3] -0.007 | [4] 0.286 | [5] 0

ZRANB2 (UniProt O95218)
inactive: [1] -0.002 | [2] -0.073 | [3] -0.07 | [4] 0.021 | [5] 0.093

ZNF768 (UniProt Q9H5H4)
inactive: [1] 0.028 | [2] -0.374 | [3] -0.132 | [4] 0.175 | [5] -0.044

2 entries picked at random from the list so far, as already listed:
ZNF277 (UniProt Q9NRM2)
inactive: [1] -0.134 | [2] 0.028 | [3] -0.007 | [4] 0.286 | [5] 0

ZNF768 (UniProt Q9H5H4)
inactive: [1] 0.028 | [2] -0.374 | [3] -0.132 | [4] 0.175 | [5] -0.044

The list goes on:

ZYX (UniProt Q15942)
inactive: [1] 0.024 | [2] 0.016 | [3] -0.051 | [4] 0.003 | [5] 0.044

ZNHIT6 (UniProt Q9NWK9)
inactive: [1] -0.042 | [2] -0.037 | [3] -0.158 | [4] 0.049 | [5] 0.064

ZNF638 (UniProt Q14966)
inactive: [1] -0.014 | [2] -0.063 | [3] -0.096 | [4] 0.08 | [5] 0.069

ZNF672 (UniProt Q499Z4)
inactive: [1] 0.045 | [2] -0.105 | [3] -0.049 | [4] 0.085 | [5] -0.001

ZNF609 (UniProt O15014)
inactive: [1] 0.035 | [2] -0.008 | [3] 0.148 | [4] 0.14 | [5] 0.073

ZNF629 (UniProt Q9UEG4)
inactive: [1] 0.018 | [2] -0.193 | [3] -0.242 | [4] 0.139 | [5] 0.045

ZNF24 (UniProt P17028)
inactive: [1] 0.028 | [2] -0.148 | [3] -0.05 | [4] 0.112 | [5] 0.034

ZNF385A (UniProt Q96PM9)
inactive: [1] 0.055 | [2] -0.048 | [3] 0.074 | [4] 0.044 | [5] 0.018

ZNF787 (UniProt Q6DD87)
inactive: [1] 0.054 | [2] -0.254 | [3] -0.144 | [4] 0.06 | [5] 0.054

ZZEF1 (UniProt O43149)
inactive: [1] -0.068 | [2] 0.016 | [3] 0.047 | [4] 0.003 | [5] -0.035

ZWILCH (UniProt Q9H900)
inactive: [1] -0.077 | [2] 0.036 | [3] 0.063 | [4] 0.037 | [5] 0.002

ZNRD1 (UniProt Q9P1U0)
inactive: [1] -0.097 | [2] -0.019 | [3] -0.181 | [4] 0.034 | [5] 0.05

ZNHIT3 (UniProt Q15649)
inactive: [1] -0.004 | [2] 0.019 | [3] -0.012 | [4] 0.048 | [5] 0.089

From the supplement of paper PMC10849652
